Results as given in PMC11679574, “Intestinal Cells-on-Chip for Permeability Studies” (Micromachines, 2024).
Read-outs that look alike come from different tables or passages of the source.

Experiments:
Caco-2 [1] = details: cited from earlier work
Caco-2 [2] = details: cited from earlier work; remark: listed apart in the source
in vitro = details: human
Experimental: (§1) Leakage to the basolateral medium was determined using the BioTek Synergy H1 microplate reader (BioSPX, Abcoude, The Netherlands). […] Apparent permeability values (Papp) were calculated according to Equation (1):(1) Papp=dQ/dt×(1/A×C0) in which dQ/dt is the amount of drug transported over the barrier (ng/sec), A is the exposed area of the cell monolayer (cm^2) and C0 is the initial dose concentration of the compound (ng/mL). All measurements were performed under flow (17 µL/min), and the chip system was inside a cell culture incubator (37 °C, 5%CO2) during the entire experiment, as described in Section 2.6.
Apical and basolateral medium reservoirs were sampled at t = 0, 1, 2 and 4 h. All measurements were performed under flow (17 µL/min), and the chip system was inside a cell culture incubator (37 °C, 5% CO2) during the entire experiment, as described in Section 2.6.
For specific inhibition, 5 µM elacridar and 5 µM ketoconazole (both Sigma-Aldrich, Zwijndrecht, The Netherlands) were used. […]
For quantification, a standard of parental compounds and metabolites was prepared in the same medium as samples. […] A limit of quantification (LOQ) was determined for each compound based on the standard curve and a limit of detection (LOD) was determined based on a noise signal. […] Recovery was calculated as the percentage of original dose added to the system. […]

[3] = Permeability in cell-on-chip system under laminar flow, enteroid monolayers; details: human
Experimental: To add the culture disc with cells into the system, it was transferred to a biosafety cabinet, the chips were opened from the top and the discs were added to the chip, after which they were closed using a twisting cap mechanism. Sufficient medium was added to the chip to ensure no air bubbles were trapped during this procedure. Flow speed was adjusted to 17 µL/min and the system was placed back into a cell culture incubator (37 °C, 5% CO2). After a short period of equilibration, transport medium (with/without compound of interest) was added to apical and basolateral reservoirs, with the basolateral medium containing 4% BSA. […]
as §1, with “All measurements were performed under flow (17 µL/min), and the chip system was inside a cell culture incubator (37 °C, 5%CO2) during the entire experiment, as described in Section 2.6.” left out
For quantification, a standard of parental compounds and metabolites was prepared in the same medium as samples. […] A limit of quantification (LOQ) was determined for each compound based on the standard curve and a limit of detection (LOD) was determined based on a noise signal. […]

CC(C)NCC(O)COc1ccc(CC(N)=O)cc1 (stereo not drawn) [Atenolol, atenolol]
Papp A to B, Static (Caco-2 [1]; ref Sasaki 2022 [26]): 0.43 ×10⁻⁶ cm/s | Papp A to B, Static (Caco-2 [1]; ref Zhang 2024 [13]): 0.26 ×10⁻⁶ cm/s | Papp A to B, Flow (Caco-2 [2]; ref Sasaki 2022 [26]): 0.1 ×10⁻⁶ cm/s | Papp A to B, Flow (Caco-2 [2]; ref Zhang 2024 [13]): 0.72 ×10⁻⁶ cm/s | Papp A→B (in vitro): 0.69 ×10⁻⁶ cm/s | Papp A→B [3]: 3.08 ×10⁻⁶ cm/s
